Reference: PubChem BioAssay AID602203 (INSERM, 2012)
Shown is a random part of 999 reagents. In the full data, 85 (8.5%) are marked active. 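Unclear how single-siRNA scores of -1, 0 or +1 give the printed -4 to 4 range; calls lie near -3 or 3 and beyond.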 Not all columns of the deposit are shown. The record does not give: the amount of reagent, the time to read-out, the dose of the treatment.

- Screen: 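Confirming genes that raise or lower cisplatin-induced death in A549 cells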 (follow-up of hits)
- System: human A549 lung cancer cells
- Reagents: siRNA pair against human genes
- Conditions: cisplatin at a dose killing half of control-siRNA cells, given 48 h after transfection
- Measurement: 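Two siRNAs per gene scored +1 protective, -1 sensitizing, 0 if toxic by LDH or growth-reducing by WST-1; cisplatin given 48 h later at 50% control kill; scores summed, mean death shift versus control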
- Reading the numbers: summed siRNA score for cisplatin death: higher = more siRNAs reduced cisplatin-induced cell death
- Rule for the call: In these data the active calls have summed siRNA score for cisplatin death at about -3 or lower, or at about 3 or higher

| gene | summed siRNA score for cisplatin death | activity call |
| --- | --- | --- |
| FBXO40 (F-box protein 40) | 0 | inactive |
| MASP1 (MBL associated serine protease 1) | -1 | inactive |
| ABCB9 (ATP binding cassette subfamily B member 9) | -2 | inactive |
| LOC221875 | -1 | inactive |
| FCGBP (Fc gamma binding protein) | 0 | inactive |
| GH1 (growth hormone 1) | -1 | inactive |
| STX1A (syntaxin 1A) | -1 | inactive |
| LOC442126 | 3 | active |
| CDK15 (cyclin dependent kinase 15) | 0 | inactive |
| KHSRP (KH-type splicing regulatory protein) | -3 | active |
| KRT18P55 (keratin 18 pseudogene 55) | 1 | inactive |
| LINC01940 (long independently transcribed non-coding RNA 1940) | 1 | inactive |
| KIF1C (kinesin family member 1C) | -1 | inactive |
| CADM2 (cell adhesion molecule 2) | 0 | inactive |
| FSAF1 (40S small subunit processome assembly factor 1) | -2 | inactive |
| TSSK6 (testis specific serine kinase 6) | 0 | inactive |
| IL6R (interleukin 6 receptor) | -3 | active |
| SLC67A1-AS (SLC67A1 antisense RNA) | 3 | active |
| ANXA13 (annexin A13) | 0 | inactive |
| RNF139 (ring finger protein 139) | -1 | inactive |
| MYL2 (myosin light chain 2) | 1 | inactive |
| ENAM (enamelin) | 2 | inactive |
| TLN2 (talin 2) | 0 | inactive |
| ROR1 (ROR family WNT receptor 1) | 1 | inactive |
| LOC442001 | -2 | inactive |
| AXL (AXL receptor tyrosine kinase) | -1 | inactive |
| LOC388312 | 0 | inactive |
| MYORG (myogenesis regulating glycosidase) | -3 | active |
| KIF3A (kinesin family member 3A) | 0 | inactive |
| WSB2 (WD repeat and SOCS box containing 2) | -4 | active |
| AXDND1 (axonemal dynein light chain domain containing 1) | 0 | inactive |
| LOC388122 | -1 | inactive |
| UCK2 (uridine-cytidine kinase 2) | 0 | inactive |
| CER1 (cerberus 1, DAN family BMP antagonist) | -1 | inactive |
| LOC391667 | 1 | inactive |
| FBXW4P1 (F-box and WD repeat domain containing 4 pseudogene 1) | 1 | inactive |
| HAO2 (hydroxyacid oxidase 2) | 1 | inactive |
| H1-5 (H1.5 linker histone, cluster member) | 0 | inactive |
| LOC391784 | 2 | inactive |
| ITK (IL2 inducible T cell kinase) | 1 | inactive |
| UBQLN4 (ubiquilin 4) | -1 | inactive |
| CENATAC (centrosomal AT-AC splicing factor) | 0 | inactive |
| LOC440778 | 2 | inactive |

Records listed above called active, once more:
| gene | summed siRNA score for cisplatin death | activity call |
| --- | --- | --- |
| LOC442126 | 3 | active |
| KHSRP (KH-type splicing regulatory protein) | -3 | active |
| IL6R (interleukin 6 receptor) | -3 | active |
| SLC67A1-AS (SLC67A1 antisense RNA) | 3 | active |
| MYORG (myogenesis regulating glycosidase) | -3 | active |
| WSB2 (WD repeat and SOCS box containing 2) | -4 | active |
